Measured values from the supplement of paper PMC4604168 (melanoma cell lines).
This is one part of the list. Repeats are few or missing, and single values can be far off.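 Imaging used 1,536-well plates; nuclei positive for cleaved PARP by antibody were divided by total DNA-stained nuclei to yield the apoptosis fraction. Doses for screening kept most cells viable, and cell lines differ markedly in resting and induced cleaved-PARP levels.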

What was measured:
Test in all cases: cleaved PARP positive nuclei fraction relative to DMSO control; melanoma cells; higher = more apoptosis
Conditions in all cases: library dose: low library concentration; 72 h
WM115 = test system: WM115
WM1716 = test system: WM1716
WM1745 = test system: WM1745
WM3526 = test system: WM3526
WM3619 = test system: WM3619
WM451Lu = test system: WM451Lu

| Compound | cleaved PARP positive nuclei fraction (WM115) [%] | cleaved PARP positive nuclei fraction (WM1716) [%] | cleaved PARP positive nuclei fraction (WM1745) [%] | cleaved PARP positive nuclei fraction (WM3526) [%] | cleaved PARP positive nuclei fraction (WM3619) [%] | cleaved PARP positive nuclei fraction (WM451Lu) [%] |
| --- | --- | --- | --- | --- | --- | --- |
| CN(c1ncccc1CNc1nc(Nc2ccc3c(c2)CC(=O)N3)ncc1C(F)(F)F)S(C)(=O)=O + Cn1cc(/C=C2\C(=O)Nc3cccnc32)c2ccccc21 [GW441756] (first compound 0.08 µM, partner dose 0.4 µM) | 291 | 60.7 | 110 | 50.2 | 84.3 | 84.9 |
| CCCCCCCCc1ccc(CCC(N)(CO)CO)cc1 [fingolimod] + CC(C)(C)c1cnc(CSc2cnc(NC(=O)C3CCNCC3)s2)o1 [SNS-032] (first compound 2 µM, partner dose 0.01 µM) | 178 | 74.1 | 102 | 114 | 93.8 | 105 |
| C[C@]1(O)C[C@@H](c2nc(-c3ccc4ccc(-c5ccccc5)nc4c3)c3c(N)nccn32)C1 + COCC[n+]1c2c(n(Cc3cnccn3)c1C)C(=O)c1ccccc1C2=O [YM155] (first compound 0.4 µM, partner dose 0.0004 µM) | 89.4 | 64.7 | 146 | 176 | 90.3 | 125 |
| NC1(c2ccc(-c3nc4ccn5c(=O)[nH]nc5c4cc3-c3ccccc3)cc2)CCC1 + NCC(=O)Nc1ccc(-n2nc(C(F)(F)F)cc2-c2ccc3c(ccc4ccccc43)c2)cc1 [OSU03012] (first compound 0.4 µM, partner dose 1 µM) | 228 | 75 | 102 | 96.8 | 89.1 | 48 |
| CC(=O)O[C@@]12CO[C@@H]1C[C@H](O)[C@@]1(C)C(=O)[C@H](O)C3=C(C)[C@@H](OC(=O)[C@H](O)[C@@H](NC(=O)OC(C)(C)C)c4ccccc4)C[C@@](O)([C@@H](OC(=O)c4ccccc4)[C@H]21)C3(C)C [Docetaxel] + CC(=O)c1c(C)c2cnc(Nc3ccc(N4CCNCC4)cn3)nc2n(C2CCCC2)c1=O [palbociclib] (first compound 0.0001 µM, partner dose 0.04 µM) | 250 | 168 | 197 | 194 | 149 | 158 |
| CN(c1ncccc1CNc1nc(Nc2ccc3c(c2)CC(=O)N3)ncc1C(F)(F)F)S(C)(=O)=O + NC1(c2ccc(-c3nc4ccn5c(=O)[nH]nc5c4cc3-c3ccccc3)cc2)CCC1 [MK2206] (first compound 0.08 µM, partner dose 0.4 µM) | 313 | 189 | 107 | 84.3 | 98.2 | 63.9 |
| CS(=O)(=O)c1ccc(C(=O)Nc2ccc(Cl)c(-c3ccccn3)c2)c(Cl)c1 [vismodegib] + OCCn1cc(-c2cnc3nnn(Cc4ccc5ncccc5c4)c3n2)cn1 [PF04217903] (first compound 1 µM, partner dose 1 µM) | 44.2 | 82.1 | 97.7 | 56.7 | 116 | 112 |
| CC1(C)CCC(c2ccc(Cl)cc2)=C(CN2CCN(c3ccc(C(=O)NS(=O)(=O)c4ccc(N[C@H](CCN5CCOCC5)CSc5ccccc5)c(S(=O)(=O)C(F)(F)F)c4)cc3)CC2)C1 + CCCS(=O)(=O)Nc1ccc(F)c(C(=O)c2c[nH]c3ncc(Cl)cc23)c1F [PLX4720] (first compound 0.4 µM, partner dose 0.08 µM) | 509 | 108 | 1210 | 62.8 | 146 | 54.4 |
| Cn1cnc2c(F)c(Nc3ccc(Br)cc3Cl)c(C(=O)NOCCO)cc21 [selumetinib] + Nc1ncn([C@H]2C[C@H](O)[C@@H](CO)O2)c(=O)n1 [decitabine] (first compound 0.015 µM, partner dose 0.1 µM) | 310 | 36.5 | 106 | 158 | 111 | 64.6 |
| CCN(CC)CCNC(=O)c1c(C)[nH]c(/C=C2\C(=O)Nc3ccc(F)cc32)c1C [sunitinib] + O=c1cc(-c2cccc3c2Sc2ccccc2S3)oc(N2CCOCC2)c1 [KU55933] (first compound 0.4 µM, partner dose 1 µM) | 72.9 | 69.5 | 156 | 52 | 64.5 | 75.3 |
| CS(=O)(=O)c1ccc(C(=O)Nc2ccc(Cl)c(-c3ccccn3)c2)c(Cl)c1 [vismodegib] + CCN(CC)CCCCNc1ncc2cc(-c3cc(OC)cc(OC)c3)c(NC(=O)NC(C)(C)C)nc2n1 [PD173074] (first compound 1 µM, partner dose 0.1 µM) | 52 | 124 | 82.8 | 66.8 | 83.9 | 86.1 |
| C[C@@H](N)c1ccc(C(=O)Nc2ccnc3[nH]ccc23)cc1 + NCC(=O)Nc1ccc(-n2nc(C(F)(F)F)cc2-c2ccc3c(ccc4ccccc43)c2)cc1 [OSU03012] (first compound 0.4 µM, partner dose 1 µM) | 115 | 175 | 102 | 153 | 92.3 | 931 |
| CC(=O)O[C@@]12CO[C@@H]1C[C@H](O)[C@@]1(C)C(=O)[C@H](O)C3=C(C)[C@@H](OC(=O)[C@H](O)[C@@H](NC(=O)OC(C)(C)C)c4ccccc4)C[C@@](O)([C@@H](OC(=O)c4ccccc4)[C@H]21)C3(C)C [Docetaxel] + COc1cc(Nc2ncc(F)c(Nc3ccc4c(n3)NC(=O)C(C)(C)O4)n2)cc(OC)c1OC [Tamatinib] (first compound 0.0001 µM, partner dose 0.4 µM) | 346 | 1390 | 313 | 144 | 163 | 239 |
| Cn1cnc2c(F)c(Nc3ccc(Br)cc3Cl)c(C(=O)NOCCO)cc21 [selumetinib] + Cc1cc(N2CCOCC2)cc2[nH]c(-c3c(NC[C@@H](O)c4cccc(Cl)c4)cc[nH]c3=O)nc12 [BMS536924] (first compound 0.015 µM, partner dose 0.2 µM) | 172 | 89.2 | 118 | 80.3 | 293 | 49.9 |
| COc1ccc(C2=N[C@@H](c3ccc(Cl)cc3)[C@@H](c3ccc(Cl)cc3)N2C(=O)N2CCNC(=O)C2)c(OC(C)C)c1 [Nutlin-3] + Cn1nnc2c(C(N)=O)ncn2c1=O [temozolomide] (first compound 0.1 µM, partner dose 2 µM) | 158 | 270 | 95.5 | 250 | 205 | 108 |
| CC(=O)O[C@@]12CO[C@@H]1C[C@H](O)[C@@]1(C)C(=O)[C@H](O)C3=C(C)[C@@H](OC(=O)[C@H](O)[C@@H](NC(=O)OC(C)(C)C)c4ccccc4)C[C@@](O)([C@@H](OC(=O)c4ccccc4)[C@H]21)C3(C)C [Docetaxel] + O=C(O)c1ccc(-c2c[nH]c3ncc(-c4ccccc4)cc23)cc1C1CCCC1 [GSK650394] (first compound 0.0001 µM, partner dose 0.16 µM) | 333 | 484 | 167 | 103 | 150 | 139 |
| Cn1cnc2c(F)c(Nc3ccc(Br)cc3Cl)c(C(=O)NOCCO)cc21 [selumetinib] + C[C@]1(c2nc3c(C(N)=O)cccc3[nH]2)CCCN1 [Veliparib] (first compound 0.015 µM, partner dose 1.4 µM) | 153 | 271 | 103 | 75.9 | 109 | 33.7 |
| Cn1sc(=O)n(Cc2ccccc2)c1=O + COc1cc(Nc2ncc(F)c(Nc3ccc4c(n3)NC(=O)C(C)(C)O4)n2)cc(OC)c1OC [Tamatinib] (first compound 0.4 µM, partner dose 0.4 µM) | 107 | 133 | 138 | 142 | 155 | 79.9 |
| CCCCCCCCc1ccc(CCC(N)(CO)CO)cc1 [fingolimod] + NCC(=O)Nc1ccc(-n2nc(C(F)(F)F)cc2-c2ccc3c(ccc4ccccc43)c2)cc1 [OSU03012] (first compound 2 µM, partner dose 1 µM) | 90.1 | 174 | 130 | 168 | 95.7 | 44.3 |
| CCCCCCCCc1ccc(CCC(N)(CO)CO)cc1 [fingolimod] + CNC(=O)c1cc(Oc2ccc(NC(=O)Nc3ccc(Cl)c(C(F)(F)F)c3)cc2)ccn1 [sorafenib] (first compound 2 µM, partner dose 0.4 µM) | 76.1 | 191 | 120 | 51 | 82.5 | 169 |
| CCCCCCCCc1ccc(CCC(N)(CO)CO)cc1 [fingolimod] + Oc1cc(-c2nc(-c3ccccc3)[nH]c2-c2ccncc2)ccc1Cl [L779450] (first compound 2 µM, partner dose 0.2 µM) | 210 | 117 | 105 | 104 | 118 | 157 |
| C[C@]1(O)C[C@@H](c2nc(-c3ccc4ccc(-c5ccccc5)nc4c3)c3c(N)nccn32)C1 + O=C1NC(=O)/C(=C/c2ccc(-c3ccc(F)cc3O)o2)S1 [AS252424] (first compound 0.4 µM, partner dose 1 µM) | 54.3 | 182 | 109 | 88.5 | 94.2 | 43.7 |
| CCN(CC)CCNC(=O)c1c(C)[nH]c(/C=C2\C(=O)Nc3ccc(F)cc32)c1C [sunitinib] + CCCS(=O)(=O)Nc1ccc(F)c(C(=O)c2c[nH]c3ncc(Cl)cc23)c1F [PLX4720] (first compound 0.4 µM, partner dose 0.08 µM) | 147 | 60.8 | 115 | 63.5 | 114 | 92 |
| Cn1sc(=O)n(Cc2ccccc2)c1=O + CC(C)CCN1c2nc(Nc3cc(F)c(O)c(F)c3)ncc2N(C)C(=O)C1C [BID1870] (first compound 0.4 µM, partner dose 0.2 µM) | 103 | 106 | 78.9 | 556 | 92.6 | 107 |
| CC(=O)O[C@@]12CO[C@@H]1C[C@H](O)[C@@]1(C)C(=O)[C@H](O)C3=C(C)[C@@H](OC(=O)[C@H](O)[C@@H](NC(=O)OC(C)(C)C)c4ccccc4)C[C@@](O)([C@@H](OC(=O)c4ccccc4)[C@H]21)C3(C)C [Docetaxel] + O=S(=O)(c1ccccc1)N(CC(F)(F)F)c1ccc(C(O)(C(F)(F)F)C(F)(F)F)cc1 [T0901317] (first compound 0.0001 µM, partner dose 1.4 µM) | 573 | 150 | 186 | 450 | 138 | 131 |

Complete entries, quoted from the list:
CC(=O)O[C@@]12CO[C@@H]1C[C@H](O)[C@@]1(C)C(=O)[C@H](O)C3=C(C)[C@@H](OC(=O)[C@H](O)[C@@H](NC(=O)OC(C)(C)C)c4ccccc4)C[C@@](O)([C@@H](OC(=O)c4ccccc4)[C@H]21)C3(C)C [Docetaxel] + O=S(=O)(c1ccccc1)N(CC(F)(F)F)c1ccc(C(O)(C(F)(F)F)C(F)(F)F)cc1 [T0901317] (first compound 0.0001 µM, partner dose 1.4 µM) as listed: cleaved PARP positive nuclei fraction (WM115) [%]: 573; cleaved PARP positive nuclei fraction (WM1716) [%]: 150; cleaved PARP positive nuclei fraction (WM1745) [%]: 186; cleaved PARP positive nuclei fraction (WM3526) [%]: 450; cleaved PARP positive nuclei fraction (WM3619) [%]: 138; cleaved PARP positive nuclei fraction (WM451Lu) [%]: 131
CC(=O)O[C@@]12CO[C@@H]1C[C@H](O)[C@@]1(C)C(=O)[C@H](O)C3=C(C)[C@@H](OC(=O)[C@H](O)[C@@H](NC(=O)OC(C)(C)C)c4ccccc4)C[C@@](O)([C@@H](OC(=O)c4ccccc4)[C@H]21)C3(C)C [Docetaxel] + CC(=O)c1c(C)c2cnc(Nc3ccc(N4CCNCC4)cn3)nc2n(C2CCCC2)c1=O [palbociclib] (first compound 0.0001 µM, partner dose 0.04 µM) as listed: cleaved PARP positive nuclei fraction (WM115) [%]: 250; cleaved PARP positive nuclei fraction (WM1716) [%]: 168; cleaved PARP positive nuclei fraction (WM1745) [%]: 197; cleaved PARP positive nuclei fraction (WM3526) [%]: 194; cleaved PARP positive nuclei fraction (WM3619) [%]: 149; cleaved PARP positive nuclei fraction (WM451Lu) [%]: 158
